Experiment: PAMPA-BBB

CN1C(=O)CN=C(c2ccccc2)c2cc(Cl)ccc21 [Diazepam]
Papp: 13.1 ± 0.79 ×10⁻⁶ cm/s
